Values of other authors, collected in patent US20230390267A1, “TREATMENT REGIMENS FOR EARLY IDIOPATHIC PARKINSON'S DISEASE” (BIAL - PORTELA & CA., S.A., priority 2020, published 2023).
At least one compound was matched to its structure with a doubt left.

Columns and labels:
[1] = test system: PD patients with motor fluctuations; details: cited from earlier work
[2] = in vivo; cited from earlier work

CCN(CC)C(=O)/C(C#N)=C/c1cc(O)c(O)c([N+](=O)[O-])c1 [entacapone, reference compound]
Placebo-adjusted OFF time reduction ([1]; entacapone, BIPARK I double-blind): -40.3 min | average reduction of OFF-time in the double-blind phase ([1]; patients treated with entacapone): 40 min | OFF time reduction, meta-analysis of entacapone studies [2]: -41 min
